Measured values published in PMC3046157.
For at least one entry, the source does not settle the construct or the ends of the probe. Where a protein sequence is shown, tags need not be part of it.

Molecular target: T1, NcrB (His6-NcrB) (Leptospirillum ferriphilum UBK03) (UniProt Q06VT2)
T1 sequence (looked up): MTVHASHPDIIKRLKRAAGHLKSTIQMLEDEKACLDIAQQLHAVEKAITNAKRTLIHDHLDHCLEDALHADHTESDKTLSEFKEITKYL
Test: competition with a labelled probe
Conditions: 0.8 uM NcrB, unlabeled competitor reduces binding to labeled pncrA; EMSA: 10 mM Tris pH 7.5, 50 mM NaCl, 1 mM DTT, 0.25% Tween 20, 5 mM MgCl2, 1 ug poly(dI-dC), 20 uL, 37 C 20 min; recombinant protein; residues 1-89; protein details: N-terminal His6 (pET-30a(+), BamHI-HindIII)

ATCCCCCTGGGGGGGAT (double strand) [17-bp inverted repeat (p1p17)]
binding result: binds
